According to the supplement of paper PMC3334620:
Whole data set: some 33,000 sequences, median “E-score (-0.5 to 0.5)” near -8e-05, cut for the highest 2% near 0.23. The list shows a part of the results.

molecular target: T1, Nrg2 (UniProt P38082); assay: PBM E-score (8-mer binding enrichment) (E-score (-0.5 to 0.5)); higher = stronger / more preferred TF binding; conditions: protein concentration: 100 nM; construct: GST-full length
T1 sequence: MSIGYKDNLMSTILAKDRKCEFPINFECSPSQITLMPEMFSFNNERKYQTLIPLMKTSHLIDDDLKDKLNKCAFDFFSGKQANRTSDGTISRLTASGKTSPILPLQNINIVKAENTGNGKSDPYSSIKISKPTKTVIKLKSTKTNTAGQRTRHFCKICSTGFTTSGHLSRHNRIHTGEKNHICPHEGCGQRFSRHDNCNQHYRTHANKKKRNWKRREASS
Description: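 Universal 'all 10-mer' protein binding microarrays (Agilent AMADID 015681) probed with GST-tagged S. cerevisiae TFs (full-length or DBD) made by in vitro transcription/translation (PURExpress), about 100-200 nM. Bound TF was detected with fluorescent anti-GST. Each ungapped 8-mer (which stands for itself and its reverse complement) is scored by the PBM enrichment score (E-score), a modified Wilcoxon-Mann-Whitney statistic from -0.5 to +0.5, computed with the Universal PBM Analysis Suite. Scale: above 0.35 generally sequence-specific binding.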

Sequence | PBM E-score
ACACCCAC | 0.0311
CCTCGGCC | 0.121
CGTTATAC | -0.19
AGTAACTA | 0.176
CAAATAAG | -0.00144
AGAACCGC | 0.0943
AGACACTC | -0.0725
TAGCCGAA | 0.036
TACCGCTA | -0.101
CGTGTGGA | -0.0391
TCACTAGA | 0.0361
CTTAGTCC | -0.107
CAGTAATG | -0.0052
AACCCGTC | -0.152
GCAGTAAC | -0.0897
GTCGCCGA | -0.095
ATACTCTA | -0.0571
GAGACACA | 0.0645
AAAAACTA | 0.136
ACTTCAAC | -0.0267
AGCATGGA | -0.181
AGCGACAG | 0.0447
CAAAATAG | -0.00183
AAAAGTCT | -0.194
AACGTAAC | 0.00432

Sequence | PBM E-score
CATCAAGA | -0.00089
TGAATACA | 0.0782
CAGACCTC | -0.183
GGGGGCAA | -0.207
ACTCCCTG | 0.0291
ATATATCG | 0.161
AAGTCGTA | -0.164
AGTCAACA | 0.00316
CAGGGCAA | 0.188
AGAGCATC | -0.0447
GGCGGCGA | -0.107
TACGGCGA | 0.0279
GTACAATA | 0.128
CCTATAAC | -0.197
CCGAGTAC | -0.0185
AGCTATTC | -0.111
ACTTGGCT | 0.0269
CACCCGAG | -0.0746
CTAACAGA | 0.0875
GGCGCTCA | -0.0461
GATCTCCC | -0.138
ATGCAGTC | -0.244
ACAACAAT | 0.0865
TGAGTTAA | 0.0318
AATAAAGG | -0.0433

Sequence | PBM E-score
AGCTCCTG | -0.201
AGAAGCCG | 0.141
AGGGCACC | -0.113
CCCAAGAG | -0.174
GCTAGTCA | -0.203
AGCGACTC | 0.00573
GTGGTGTA | -0.106
AATAAATA | 0.246
CGCAGAGA | 0.0184
GGTGAAAA | 0.158
ACGGGGTC | 0.0404
ATTCAGCC | -0.0946
ATCCCACA | -0.0492
GGTGTAAC | 0.018
CGAAAGAC | -0.0591
ACGGCGCA | 0.102
ACATGAGG | -0.21
ACCGTTGG | -0.0948
CATTAGTC | -0.0583
CTTTTACA | 0.0661
GCAGGCCA | -0.00487
AGGGTCTA | 0.356
GAATATGA | -0.0524
GAAAGAGC | -0.0335
CCCAAACG | -0.123

Sequence | PBM E-score
CCCACGGC | -0.0251
ATGCACGG | -0.0196
CGCTTCAG | 0.0138
CATCTTAA | 0.251
GCACCTCA | 0.0688
AAATGACG | 0.167
CTCAACGC | 0.0992
AACCTGAG | 0.0374
CGAGGTAG | -0.127
AGTGCATC | -0.00114
ACAACCCA | 0.106
GTAGTTGA | 0.143
CGTCGACG | 0.114
AAGGCGGA | -0.0742
AAGGGAGG | -0.19
ACGTTATA | 0.00956
AGTGCACC | 0.0907
ACACACAG | 0.208
CCAGGATA | 0.0393
CATGCGGA | -0.173
ACAACGGC | 0.0869
GTCTACTA | 0.0788
CAGCACGC | -0.15
CGCACCCA | -0.142
ATGATGAG | 0.0874

Sequence | PBM E-score
CATGAGAG | 0.118
ACCCTCGC | 0.144
ATACAATA | 0.239
GTGGATCA | -0.132
ACACCTCC | -0.258
AGGCGTTG | 0.0253
CTGATGAC | 0.0398
ACCAATCT | 0.0269
GCGGATGA | 0.11
CTATCGCC | -0.172
AAGCAACT | 0.14
GGAATTTA | 0.103
CGGTGATA | -0.0567
AACCTCCC | -0.147
CGCTAATC | -0.0129
CCGTTAGC | -0.196
CAGATTCC | -0.0915
AAAAAACG | -0.0569
AAATCGTG | 0.177
GTGAAAGA | 0.0754
TACCGCGA | 0.0041
AGTAGTTG | 0.253
CTGACCTC | -0.164
CACCTCAC | 0.0319
AGGCAGCG | -0.0983

Sequence | PBM E-score
ATCAGAAG | 0.135
GCCGGACC | -0.0451
CTTGTATC | 0.0489
TGAGTGAA | 0.0506
GATGTCCA | -0.0309
GAGATACC | 0.127
CAAGGAAG | 0.017
ATCCCTTG | 0.111
GTAGGGCA | -0.141
GGGTCTAC | 0.203
GGTCAGGA | 0.244
CTGTTAGA | -0.16
CTTCCTAC | -0.36
GGATAGCA | 0.0845
CTAACTTA | 0.0931
GCACCTGC | -0.145
GAACCAGC | 0.0888
ATAGTGTG | 0.116
CACGGATC | -0.0332
ACCTAAAT | 0.0332
ATCGCAGA | -0.0922
ACTAAGCG | 0.0152
ACCCTAAC | 0.116
GTGAGTGA | -0.0223
GACTACAC | 0.0721

Reprinted at random: 4 entries already listed
Sequence | PBM E-score
GTAGGGCA | -0.141
GGATAGCA | 0.0845
ACCTAAAT | 0.0332
GGTCAGGA | 0.244

The list continues:

Sequence | PBM E-score
GCCAAAGC | -0.121
ATCGTTTG | 0.0816
AATGATAG | 0.219
TACCGACA | 0.0923
AAATGGTC | 0.0735
CGCATTCC | -0.225
AAAGCCAT | 0.0845
ATCTCAGC | -0.00473
AACATCAG | 0.083
CACAGGGC | 0.179
CACGGCAA | 0.0887
CGTGCCCA | -0.124
TACGGAAA | -0.0442
ACGACACT | -0.0895
AGCCCATC | -0.0428
ACAGTCGC | -0.211
AGGCTCGA | -0.0105
GGGCAGCA | -0.159
CCGACCAA | 0.114
CCACTCTC | -0.0679
GTTAATAA | 0.128
CTGTCGAC | -0.0435
